Assay in all cases: DAPPL (digital affinity profiling via proximity ligation, sequencing)
Settings in all cases: 10 mM Tris-HCl pH 7.5, 50 mM NaCl, 1 mM DTT, 4% glycerol, room temperature, 30 min; GST-TFs on glutathione beads, 16-mer random dsDNA library, 0.1% …; high values mean tight binding; double strand, one strand shown; scale: fold enrichment (6-mer frequency, TF over GST control)

By UniProt entry, the sequences of proteins in these tests, tags left out. Where a name states a change or a piece, a line headed by the entry shows the natural chain unless it says otherwise.
UniProt P32519: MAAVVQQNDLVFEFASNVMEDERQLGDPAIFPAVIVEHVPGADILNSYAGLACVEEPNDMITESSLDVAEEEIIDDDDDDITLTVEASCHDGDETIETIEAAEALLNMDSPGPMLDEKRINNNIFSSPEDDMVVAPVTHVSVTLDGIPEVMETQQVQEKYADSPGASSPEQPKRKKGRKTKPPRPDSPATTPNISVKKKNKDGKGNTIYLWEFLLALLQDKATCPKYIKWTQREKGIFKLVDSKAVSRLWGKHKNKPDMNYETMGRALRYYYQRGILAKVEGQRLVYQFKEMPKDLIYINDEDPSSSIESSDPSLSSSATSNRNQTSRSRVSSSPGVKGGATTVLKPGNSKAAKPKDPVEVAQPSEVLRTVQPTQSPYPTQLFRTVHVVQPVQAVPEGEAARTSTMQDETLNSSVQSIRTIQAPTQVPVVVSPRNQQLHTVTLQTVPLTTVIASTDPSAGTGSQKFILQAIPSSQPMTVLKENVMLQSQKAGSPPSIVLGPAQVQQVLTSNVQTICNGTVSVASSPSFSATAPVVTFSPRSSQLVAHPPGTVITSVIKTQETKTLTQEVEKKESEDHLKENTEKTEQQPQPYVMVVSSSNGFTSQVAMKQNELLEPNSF
UniProt P50549: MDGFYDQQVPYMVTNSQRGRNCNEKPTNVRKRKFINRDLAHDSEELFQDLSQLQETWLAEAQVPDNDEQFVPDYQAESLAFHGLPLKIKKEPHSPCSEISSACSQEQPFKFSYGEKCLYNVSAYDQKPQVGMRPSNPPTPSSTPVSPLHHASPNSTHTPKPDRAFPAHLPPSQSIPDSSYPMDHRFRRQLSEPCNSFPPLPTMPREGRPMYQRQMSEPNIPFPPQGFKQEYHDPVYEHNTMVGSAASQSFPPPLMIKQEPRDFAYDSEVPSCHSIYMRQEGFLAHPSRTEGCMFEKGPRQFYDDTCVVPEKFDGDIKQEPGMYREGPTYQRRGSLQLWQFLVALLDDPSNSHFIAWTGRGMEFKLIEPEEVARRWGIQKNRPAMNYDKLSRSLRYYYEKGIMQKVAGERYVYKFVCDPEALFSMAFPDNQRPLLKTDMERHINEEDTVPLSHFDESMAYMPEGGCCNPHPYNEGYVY

Test [1] has as its target T1, ERG (UniProt P11308).
T1 sequence: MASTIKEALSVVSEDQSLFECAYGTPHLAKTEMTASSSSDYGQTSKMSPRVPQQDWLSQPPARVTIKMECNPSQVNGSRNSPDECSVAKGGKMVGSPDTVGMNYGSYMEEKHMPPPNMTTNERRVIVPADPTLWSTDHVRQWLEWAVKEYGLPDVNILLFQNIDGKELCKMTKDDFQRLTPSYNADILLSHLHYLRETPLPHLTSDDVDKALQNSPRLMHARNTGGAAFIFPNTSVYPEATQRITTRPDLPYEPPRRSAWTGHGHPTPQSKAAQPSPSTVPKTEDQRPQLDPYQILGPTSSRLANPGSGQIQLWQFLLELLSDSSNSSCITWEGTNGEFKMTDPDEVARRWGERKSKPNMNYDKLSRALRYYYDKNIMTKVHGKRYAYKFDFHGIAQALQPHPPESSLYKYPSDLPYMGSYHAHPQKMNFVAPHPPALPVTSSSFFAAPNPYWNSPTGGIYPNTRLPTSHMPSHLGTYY

In test [2] the target is ELF1 (UniProt P32519).
In test [3] the target is T2, ELK4 (UniProt P28324-2).
T2 sequence: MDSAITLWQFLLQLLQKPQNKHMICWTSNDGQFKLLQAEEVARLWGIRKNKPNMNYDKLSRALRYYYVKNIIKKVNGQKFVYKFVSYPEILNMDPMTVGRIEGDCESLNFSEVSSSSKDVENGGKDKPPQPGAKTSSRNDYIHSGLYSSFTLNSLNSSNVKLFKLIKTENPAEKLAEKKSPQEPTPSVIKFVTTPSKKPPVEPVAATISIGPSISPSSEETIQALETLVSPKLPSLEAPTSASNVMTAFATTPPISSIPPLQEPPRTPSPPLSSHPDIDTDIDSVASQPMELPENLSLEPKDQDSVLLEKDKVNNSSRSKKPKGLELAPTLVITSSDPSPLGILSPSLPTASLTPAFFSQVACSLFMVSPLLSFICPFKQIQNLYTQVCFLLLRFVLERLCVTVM

Test [4] concerns the target T3, ETV4 (UniProt P43268).
T3 sequence: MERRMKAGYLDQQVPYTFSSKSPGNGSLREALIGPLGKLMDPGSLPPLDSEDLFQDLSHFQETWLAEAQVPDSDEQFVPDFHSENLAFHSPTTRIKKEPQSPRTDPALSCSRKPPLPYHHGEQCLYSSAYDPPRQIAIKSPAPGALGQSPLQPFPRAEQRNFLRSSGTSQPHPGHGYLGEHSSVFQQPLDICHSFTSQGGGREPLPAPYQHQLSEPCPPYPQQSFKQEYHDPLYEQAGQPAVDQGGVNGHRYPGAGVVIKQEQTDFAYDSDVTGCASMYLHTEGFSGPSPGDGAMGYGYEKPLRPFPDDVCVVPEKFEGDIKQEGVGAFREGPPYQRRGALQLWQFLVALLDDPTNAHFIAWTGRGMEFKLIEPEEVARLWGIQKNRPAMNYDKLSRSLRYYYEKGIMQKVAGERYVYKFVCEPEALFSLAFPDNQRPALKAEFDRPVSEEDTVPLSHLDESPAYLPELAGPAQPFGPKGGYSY

Test [5] deals with ETV1 (UniProt P50549).
Test [6] concerns the target T4, ERF (UniProt P50548).
T4 sequence: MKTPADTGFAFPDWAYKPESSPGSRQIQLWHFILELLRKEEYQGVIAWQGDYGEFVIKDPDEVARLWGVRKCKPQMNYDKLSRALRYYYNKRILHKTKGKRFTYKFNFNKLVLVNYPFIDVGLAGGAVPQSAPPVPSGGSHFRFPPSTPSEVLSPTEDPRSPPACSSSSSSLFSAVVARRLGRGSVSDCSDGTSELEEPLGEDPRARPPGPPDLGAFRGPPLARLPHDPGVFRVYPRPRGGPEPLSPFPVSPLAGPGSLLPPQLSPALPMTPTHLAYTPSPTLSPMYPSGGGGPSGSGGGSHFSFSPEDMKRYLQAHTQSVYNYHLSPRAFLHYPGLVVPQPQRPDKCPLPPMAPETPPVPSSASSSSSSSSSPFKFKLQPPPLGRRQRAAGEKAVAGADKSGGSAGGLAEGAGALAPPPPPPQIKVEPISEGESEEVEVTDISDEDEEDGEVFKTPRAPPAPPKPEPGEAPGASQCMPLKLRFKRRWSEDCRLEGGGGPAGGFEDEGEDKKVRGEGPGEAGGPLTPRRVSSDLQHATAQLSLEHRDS

The entries are a selection whose mix differs from that of the whole data set. For part of these data: At the low end of the ranking the order means little. Some of the results follow. For part of these data: The source does not settle which construct or isoform was used.

In the case of AGGGAT, the binding signal in test [1] is 0.791; in test [2], 0.749; in test [3] it was 0.697; in test [4], 0.799; in test [5], 0.825; in test [6], 0.818.
With CCGCGG, the binding signal was 0.958 in test [1]; 0.843 in test [2]; 0.77 in test [3]; 0.887 in test [4]; 0.948 in test [5]; 0.869 in test [6].
Turning to TGTTGG, the binding signal was found to be 0.913 in test [1]; 0.967 in test [2]; 0.856 in test [3]; 0.872 in test [4]; 0.903 in test [5]; 0.94 in test [6].
Turning to TAAGGA, the binding signal in test [1] was found to be 0.868; in test [2], 0.865; in test [3], 0.78; in test [4] it was 0.842; in test [5], 0.855; in test [6], 0.815.
Regarding GTGCAC, the binding signal in test [1] came out at 0.886; in test [2] it was 0.95; in test [3], 0.918; in test [4], 0.973; in test [5] it was 0.905; in test [6] it was 0.994.
Consider AGAATC, for which the binding signal turned out to be 0.966 in test [1]; 0.994 in test [2]; 0.997 in test [3]; 0.877 in test [4]; 0.938 in test [5]; 0.988 in test [6].
As to ACAAGG, the binding signal is 0.979 in test [1]; 0.989 in test [2]; 0.879 in test [3]; 0.906 in test [4]; 0.96 in test [5]; 0.953 in test [6].
For AGTACC, the binding signal in test [1] is 0.977; in test [2] it was 0.901; in test [3], 0.958; in test [4] it was 0.931; in test [5], 0.977; in test [6] it was 0.949.
As to TTCGGG, the binding signal came to 0.93 in test [1]; 0.936 in test [2]; 0.797 in test [3]; 0.946 in test [4]; 0.893 in test [5]; 0.884 in test [6].

The values above are taken from PMC7862700.
